Results from article PMC7840056.
No constants are given. Whether binding was seen depends on the method and setting. For some assays here: Binding calls can cover weak binding; strength is not graded here. Sequences can lack the tags named with a protein.

Experiments:
Assay in all cases: two-hybrid; Bacterial Adenylate Cyclase Two-Hybrid (BACTH) in E. coli BTH101; SlyD fused to T25, Niu proteins fused to T18 (pUT18); LB with IPTG 10^-3 M overnight at 30°C; ß-galactosidase activity in Miller units
[1] = target: NiuDΔ9, C-terminally truncated NiuD fused to the T18 fragment (Helicobacter pylori (strain B128))
[2] = target: NiuDΔ4, C-terminally truncated NiuD fused to the T18 fragment (Helicobacter pylori (strain B128))
[3] = target: NiuDΔ7 Arg208 to Gln, fused to the T18 fragment (Helicobacter pylori (strain B128))
[4] = target: NiuDΔ8, C-terminally truncated NiuD fused to the T18 fragment (Helicobacter pylori (strain B128))
[5] = target: NiuDΔ6, C-terminally truncated NiuD fused to the T18 fragment (Helicobacter pylori (strain B128))
[6] = target: NiuDΔ11, C-terminally truncated NiuD fused to the T18 fragment (Helicobacter pylori (strain B128))
[7] = target: NiuDΔ7 Pro203 to Val, fused to the T18 fragment (Helicobacter pylori (strain B128))
[8] = target: NiuDΔ7 Trp209 to Phe, fused to the T18 fragment (Helicobacter pylori (strain B128))
[9] = target: NiuDΔ7 Arg210 to Gly, fused to the T18 fragment (Helicobacter pylori (strain B128))
[10] = target: NiuDΔ10, C-terminally truncated NiuD fused to the T18 fragment (Helicobacter pylori (strain B128))
[11] = target: NiuDΔ5, C-terminally truncated NiuD fused to the T18 fragment (Helicobacter pylori (strain B128))
[12] = target: NiuDΔ7, C-terminally truncated NiuD fused to the T18 fragment (Helicobacter pylori (strain B128))
[13] = target: NiuDΔ12, C-terminally truncated NiuD fused to the T18 fragment (Helicobacter pylori (strain B128))
[14] = target: NiuDΔ7 Trp209 to Gly, fused to the T18 fragment (Helicobacter pylori (strain B128))

B1: SlyD wild type fused to the T25 fragment of Bordetella pertussis adenylate cyclase (pNKT25) (protein, UniProt O25748 1-185)
chain: MQNHDLESIKQAALIEYEVREQGSSIVLDSNISKEPLEFIIGTNQIIAGLEKAVLKAQIGEWEEVVIAPEEAYGVYESSYLQEVPRDQFEGIELEKGMSVFGQTEDNQTIQAIIKDFSATHVMVDYNHPLAGKTLAFRFKVLGFREVSEEEILASHHGGGTGCCGGHGGHGGKKGGGCGCSCSHG
B1 was tested, and the binding [1] was “binds”, the binding [2] was “binds” and the binding [3] was “no binding”. The binding [4] was “binds”, the binding [5] was “binds” and the binding [6] was “no binding”. For the same binder, the binding [7] was “binds”, the binding [8] was “binds” and the binding [9] was “no binding”. The binding [10] was “no binding”, the binding [11] was “binds” and the binding [12] was “binds”. For the same binder, the binding [13] was “no binding” and the binding [14] was “binds”.
